The supplement of paper PMC4604168 (melanoma cell lines)
This is one part of the list. Single values are uncertain, as repeats are few or missing.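 Imaging used 1,536-well plates; nuclei positive for cleaved PARP by antibody were divided by total DNA-stained nuclei to yield the apoptosis fraction. Doses for screening kept most cells viable, and cell lines differ markedly in resting and induced cleaved-PARP levels.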

Legend:
Assay in all cases: cleaved PARP positive nuclei fraction relative to DMSO control; melanoma cells; higher = more apoptosis
Conditions in all cases: library dose: low library concentration; 72 h
501Mel = system: 501Mel
A101D = system: A101D
A2058 = system: A2058
A375 = system: A375
C32 = system: C32
CBRC013 = system: CBRC013 (line from a melanoma biopsy)
CBRC014 = system: CBRC014 (line from a melanoma biopsy)
CBRC016 = system: CBRC016 (line from a melanoma biopsy)
CBRC017 = system: CBRC017 (line from a melanoma biopsy)
CBRC034 = system: CBRC034 (line from a melanoma biopsy)
COLO792 = system: COLO792
COLO800 = system: COLO800
COLO829 = system: COLO829
G361 = system: G361
IPC-298 = system: IPC-298
IST-MEL1 = system: IST-MEL1
LB2518-MEL = system: LB2518-MEL
LOXIMVI = system: LOXIMVI

Row | Compound | cleaved PARP positive nuclei fraction (501Mel) | cleaved PARP positive nuclei fraction (A101D) | cleaved PARP positive nuclei fraction (A2058) | cleaved PARP positive nuclei fraction (A375) | cleaved PARP positive nuclei fraction (C32) | cleaved PARP positive nuclei fraction (CBRC013) | cleaved PARP positive nuclei fraction (CBRC014) | cleaved PARP positive nuclei fraction (CBRC016) | cleaved PARP positive nuclei fraction (CBRC017) | cleaved PARP positive nuclei fraction (CBRC034) | cleaved PARP positive nuclei fraction (COLO792) | cleaved PARP positive nuclei fraction (COLO800) | cleaved PARP positive nuclei fraction (COLO829) | cleaved PARP positive nuclei fraction (G361) | cleaved PARP positive nuclei fraction (IPC-298) | cleaved PARP positive nuclei fraction (IST-MEL1) | cleaved PARP positive nuclei fraction (LB2518-MEL) | cleaved PARP positive nuclei fraction (LOXIMVI)
1 | C[C@@H]1CCN(C(=O)CC#N)C[C@@H]1N(C)c1ncnc2[nH]ccc12 + c1cc(-c2cnn3cc(-c4ccc(OCCN5CCCCC5)cc4)cnc23)ccn1 [Dorsomorphin] (first compound 1 µM, partner dose 0.4 µM) | 68.9% | 96.4% | 86.1% | 112% | 39.7% | 53.8% | 113% | 29.1% | 81.7% | 80.6% | 45% | 49.9% | 57.4% | 32.8% | 64% | 133% | 88.7% | 57.6%
2 | C[C@@H]1CCN(C(=O)CC#N)C[C@@H]1N(C)c1ncnc2[nH]ccc12 + O=c1cc(-c2cccc3c2Sc2ccccc2S3)oc(N2CCOCC2)c1 [KU55933] (first compound 1 µM, partner dose 1 µM) | 193% | 109% | 46.4% | 65.9% | 230% | 226% | 96% | 109% | 99.1% | 264% | 122% | 103% | 119% | 180% | 88.4% | 55.6% | 78.6% | 83.9%
3 | OCCn1cc(-c2cnc3nnn(Cc4ccc5ncccc5c4)c3n2)cn1 + O=C1NC(=O)/C(=C/c2ccc(-c3ccc(F)cc3O)o2)S1 [AS252424] (first compound 1 µM, partner dose 1 µM) | 78% | 104% | 70.5% | 138% | 149% | 31.6% | 80.1% | 116% | 81.7% | 73.6% | 94.6% | 77.9% | 81.7% | 63.1% | 77.3% | 57.7% | 90.7% | 79.1%
4 | Cn1cncc1[C@@](N)(c1ccc(Cl)cc1)c1ccc2c(c1)c(-c1cccc(Cl)c1)cc(=O)n2C [tipifarnib] + Oc1cc(-c2nc(-c3ccccc3)[nH]c2-c2ccncc2)ccc1Cl [L779450] (first compound 0.01 µM, partner dose 0.2 µM) | 90.9% | 86.6% | 99.1% | 174% | 90.5% | 630% | 114% | 26% | 96.7% | 55% | 69.4% | 123% | 44.1% | 129% | 146% | 90.7% | 283% | 47.8%
5 | Cn1cncc1[C@@](N)(c1ccc(Cl)cc1)c1ccc2c(c1)c(-c1cccc(Cl)c1)cc(=O)n2C [tipifarnib] + O=C(Nc1ccccc1)c1cc([N+](=O)[O-])ccc1Cl [GW9662] (first compound 0.01 µM, partner dose 2 µM) | 98% | 138% | 102% | 188% | 94.7% | 201% | 109% | 153% | 102% | 48.8% | 122% | 85% | 127% | 91.8% | 408% | 84.6% | 248% | 78.8%
6 | OCCn1cc(-c2cnc3nnn(Cc4ccc5ncccc5c4)c3n2)cn1 + O=C(Nc1ccccc1)c1cc([N+](=O)[O-])ccc1Cl [GW9662] (first compound 1 µM, partner dose 2 µM) | 220% | 53.5% | 55.4% | 222% | 42% | 124% | 101% | 184% | 82.2% | 81.1% | 38.4% | 145% | 51% | 122% | 83.3% | 106% | 187% | 86.8%
7 | C=CCn1c(=O)c2cnc(Nc3ccc(N4CCN(C)CC4)cc3)nc2n1-c1cccc(C(C)(C)O)n1 + CCCCCCCCCCCC1=C(O)C(=O)C=C(O)C1=O [Embelin] (first compound 0.02 µM, partner dose 1.2 µM) | 68.9% | 139% | 144% | 308% | 63.7% | 150% | 118% | 67.2% | 82.9% | 94.5% | 164% | 149% | 134% | 70.6% | 141% | 82.4% | 105% | 78.4%
8 | NC(=O)Nc1cc(-c2cccc(F)c2)sc1C(=O)N[C@H]1CCCNC1 + O=C(O)C(=O)Nc1sc2c(c1C(=O)O)CCNC2 [TCS401] (first compound 0.02 µM, partner dose 1.66667 µM) | 92.3% | 114% | 109% | 416% | 179% | 89.2% | 116% | 128% | 62.5% | 200% | 112% | 137% | 113% | 68.4% | 154% | 76.5% | 72.9% | 90.2%
9 | O=C(CCCCCCC(=O)Nc1ccccc1)NO [vorinostat] + CC(C)CCN1c2nc(Nc3cc(F)c(O)c(F)c3)ncc2N(C)C(=O)C1C [BID1870] (first compound 0.08 µM, partner dose 0.2 µM) | 73.3% | 66.9% | 74.6% | 174% | 253% | 70.5% | 162% | 96.1% | 66.4% | 75.1% | 116% | 50% | 48.5% | 186% | 82.5% | 33.5% | 90.7% | 133%
10 | O=C(CCCCCCC(=O)Nc1ccccc1)NO [vorinostat] + COc1ccc2c(c1)CCC1C2CCC2(C)C(NCCCCCCN3C(=O)C=CC3=O)CCC12 [U73122] (first compound 0.08 µM, partner dose 0.4 µM) | 77.1% | 128% | 63.3% | 25.4% | 124% | 68.3% | 106% | 128% | 97.7% | 173% | 57.4% | 113% | 133% | 150% | 162% | 136% | 81.8% | 84%
11 | OCCn1cc(-c2cnc3nnn(Cc4ccc5ncccc5c4)c3n2)cn1 + COc1ccc(COc2ccc(Cc3cnc(N)nc3N)cc2OC)cc1 [GW2580] (first compound 1 µM, partner dose 1 µM) | 137% | 106% | 194% | 161% | 130% | 92.6% | 96.9% | 68.7% | 59.8% | 72.2% | 42.8% | 80.2% | 72.7% | 82.3% | 27.5% | 180% | 95.1% | 57.4%
12 | Cn1nnc2c(C(N)=O)ncn2c1=O [temozolomide] + O=C1NC(=O)/C(=C/c2ccc(-c3ccc(F)cc3O)o2)S1 [AS252424] (first compound 2 µM, partner dose 1 µM) | 33.2% | 136% | 81.3% | 334% | 110% | 45.4% | 103% | 85.6% | 78.3% | 53.7% | 108% | 82.4% | 134% | 130% | 368% | 61.6% | 363% | 135%
13 | CC1(C)NC(=O)N(c2ccc([N+](=O)[O-])c(C(F)(F)F)c2)C1=O [nilutamide] + CCN(CC)CCCCNc1ncc2cc(-c3cc(OC)cc(OC)c3)c(NC(=O)NC(C)(C)C)nc2n1 [PD173074] (first compound 1 µM, partner dose 0.1 µM) | 94.7% | 80.1% | 129% | 91.7% | 32.9% | 204% | 76.3% | 18.7% | 64.6% | 122% | 40.5% | 87.2% | 75.6% | 96.7% | 81.2% | 26.4% | 77% | 69.6%
14 | C[C@]1(c2nc3c(C(N)=O)cccc3[nH]2)CCCN1 [Veliparib] + COc1ccc(COc2ccc(Cc3cnc(N)nc3N)cc2OC)cc1 [GW2580] (first compound 1.4 µM, partner dose 1 µM) | 69% | 37.6% | 74.6% | 28.6% | 208% | 57.8% | 116% | 65.5% | 81.3% | 45.6% | 133% | 114% | 107% | 172% | 187% | 37.9% | 221% | 17.6%
15 | OCCn1cc(-c2cnc3nnn(Cc4ccc5ncccc5c4)c3n2)cn1 + O=S(=O)(c1ccccc1)N(CC(F)(F)F)c1ccc(C(O)(C(F)(F)F)C(F)(F)F)cc1 [T0901317] (first compound 1 µM, partner dose 1.4 µM) | 40.8% | 59.4% | 67.3% | 80.8% | 39.8% | 373% | 78.2% | 39.1% | 89.4% | 47% | 86.7% | 104% | 155% | 32.7% | 58.4% | 55.1% | 95.3% | 19.7%
16 | C#Cc1cccc(Nc2ncnc3cc(OCCOC)c(OCCOC)cc23)c1 [erlotinib] + O=C1NC(=O)/C(=C/c2ccc(-c3ccc(F)cc3O)o2)S1 [AS252424] (first compound 0.8 µM, partner dose 1 µM) | 152% | 108% | 196% | 105% | 64% | 84.7% | 112% | 118% | 115% | 61.5% | 111% | 148% | 72.4% | 174% | 133% | 101% | 83.1% | 35.6%
17 | O=C(Nc1cccc(Cl)c1)Nc1ncc(CCNc2ncnc3ccsc23)s1 + O=c1cc(-c2cccc3c2Sc2ccccc2S3)oc(N2CCOCC2)c1 [KU55933] (first compound 0.0008 µM, partner dose 1 µM) | 228% | 197% | 191% | 6.62% | 43.3% | 107% | 80.4% | 51.5% | 101% | 32.6% | 67.2% | 305% | 104% | 143% | 47.1% | 123% | 122% | 20.9%
18 | Cn1c(Nc2ccc(C(F)(F)F)cc2)nc2cc(Oc3ccnc(-c4ncc(C(F)(F)F)[nH]4)c3)ccc21 + Cn1cc(/C=C2\C(=O)Nc3cccnc32)c2ccccc21 [GW441756] (first compound 0.08 µM, partner dose 0.4 µM) | 243% | 514% | 195% | 329% | 79.1% | 275% | 101% | 93.7% | 48.9% | 98% | 478% | 135% | 122% | 244% | 118% | 36.4% | 72.4% | 58.1%
19 | C[C@@H]1CCN(C(=O)CC#N)C[C@@H]1N(C)c1ncnc2[nH]ccc12 + Oc1nc(-c2ccc(C(F)(F)F)cc2)nc2c1CSCC2 [XAV939] (first compound 1 µM, partner dose 2 µM) | 158% | 186% | 237% | 59.4% | 45.9% | 263% | 75.6% | 83% | 84.1% | 96% | 113% | 98.7% | 68% | 80.4% | 171% | 134% | 258% | 120%

Whole records from above. Order of values: cleaved PARP positive nuclei fraction (501Mel)	cleaved PARP positive nuclei fraction (A101D)	cleaved PARP positive nuclei fraction (A2058)	cleaved PARP positive nuclei fraction (A375)	cleaved PARP positive nuclei fraction (C32)	cleaved PARP positive nuclei fraction (CBRC013)	cleaved PARP positive nuclei fraction (CBRC014)	cleaved PARP positive nuclei fraction (CBRC016)	cleaved PARP positive nuclei fraction (CBRC017)	cleaved PARP positive nuclei fraction (CBRC034)	cleaved PARP positive nuclei fraction (COLO792)	cleaved PARP positive nuclei fraction (COLO800)	cleaved PARP positive nuclei fraction (COLO829)	cleaved PARP positive nuclei fraction (G361)	cleaved PARP positive nuclei fraction (IPC-298)	cleaved PARP positive nuclei fraction (IST-MEL1)	cleaved PARP positive nuclei fraction (LB2518-MEL)	cleaved PARP positive nuclei fraction (LOXIMVI)
Cn1c(Nc2ccc(C(F)(F)F)cc2)nc2cc(Oc3ccnc(-c4ncc(C(F)(F)F)[nH]4)c3)ccc21 + Cn1cc(/C=C2\C(=O)Nc3cccnc32)c2ccccc21 [GW441756] (first compound 0.08 µM, partner dose 0.4 µM) is listed as 243%	514%	195%	329%	79.1%	275%	101%	93.7%	48.9%	98%	478%	135%	122%	244%	118%	36.4%	72.4%	58.1%
C[C@@H]1CCN(C(=O)CC#N)C[C@@H]1N(C)c1ncnc2[nH]ccc12 + O=c1cc(-c2cccc3c2Sc2ccccc2S3)oc(N2CCOCC2)c1 [KU55933] (first compound 1 µM, partner dose 1 µM) is listed as 193%	109%	46.4%	65.9%	230%	226%	96%	109%	99.1%	264%	122%	103%	119%	180%	88.4%	55.6%	78.6%	83.9%
